Data: PMC11904967

Sequences of proteins named here, by UniProt entry; tags and fusion partners are left off.
UniProt O60260: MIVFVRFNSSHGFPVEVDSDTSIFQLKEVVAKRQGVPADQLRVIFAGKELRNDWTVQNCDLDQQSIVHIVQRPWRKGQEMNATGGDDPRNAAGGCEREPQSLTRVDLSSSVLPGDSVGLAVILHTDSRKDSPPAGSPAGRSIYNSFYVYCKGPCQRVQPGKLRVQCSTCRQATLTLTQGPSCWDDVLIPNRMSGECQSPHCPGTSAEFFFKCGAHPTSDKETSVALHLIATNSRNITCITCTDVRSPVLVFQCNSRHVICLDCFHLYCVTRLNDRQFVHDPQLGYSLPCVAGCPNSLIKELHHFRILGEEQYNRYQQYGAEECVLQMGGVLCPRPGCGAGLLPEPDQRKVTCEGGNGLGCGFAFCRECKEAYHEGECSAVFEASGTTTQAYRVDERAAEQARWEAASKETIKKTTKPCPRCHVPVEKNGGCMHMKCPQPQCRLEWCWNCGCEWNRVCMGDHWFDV

Biological target: T1, His‐HACD2 expressed in HEK‐293T cells (human) (UniProt Q6Y1H2)
T1 sequence: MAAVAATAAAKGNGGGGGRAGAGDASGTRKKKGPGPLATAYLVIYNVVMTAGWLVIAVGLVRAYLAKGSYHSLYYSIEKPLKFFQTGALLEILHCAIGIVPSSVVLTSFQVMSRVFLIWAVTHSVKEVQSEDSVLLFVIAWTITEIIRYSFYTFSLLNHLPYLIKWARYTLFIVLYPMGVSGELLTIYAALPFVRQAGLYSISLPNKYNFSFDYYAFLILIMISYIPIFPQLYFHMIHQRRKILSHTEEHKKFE
Experiment: affinity purification with mass spectrometry; HEK-293T cells transfected with His-HACD2; IP with an anti-His antibody or IgG, protein A/G 2 h at room temperature, SDS-PAGE, mass spectrometry

binding: binds
Substance: E3 ubiquitin‐protein ligase parkin (PRKN), found in the HACD2 immunoprecipitate of HEK‐293T cells (from UniProt O60260 1-465)

These are yes or no findings as the source states them, for the method shown. In cells and extracts the contact can be indirect. These calls come from enrichment with a bait or labelling near it, and not all partners need be listed. Tags and fused reporters may be left off the sequences shown.
